From the supplement of paper PMC4862054
Small differences around the control level are noise.

What was measured:
Assay in all cases: normalised response (% of control), CellTox Green; higher = less cell death (100 = DMSO, 0 = benzethonium chloride kill control)
Settings in all cases: incubation time: 72 h
[1] = test system: HCC1599
Procedure: (§1)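 DSRT, 72 h incubation, CellTox Green / CellTiter-Glo readout. Signal is normalised to DMSO and benzethonium chloride controls. Value is the normalised response at dose 2.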

[2] = test system: HCC1143
Procedure: as §1

[3] = test system: HDQ-P1
Procedure: as §1

[4] = test system: MCF-10A
Procedure: as §1

[5] = test system: CAL-51
Procedure: as §1

[6] = test system: CAL-148
Procedure: as §1

[7] = test system: HCC1937
Procedure: as §1

[8] = test system: MDA-MB-468
Procedure: as §1

[9] = test system: MFM-223
Procedure: as §1

[10] = test system: DU-4475
Procedure: as §1

[11] = test system: CAL-120
Procedure: as §1

[12] = test system: CAL-85-1
Procedure: as §1

[13] = test system: MDA-MB-231
Procedure: as §1

[14] = test system: MDA-MB-436
Procedure: as §1

[15] = test system: MDA-MB-453
Procedure: as §1

[16] = test system: BT-549
Procedure: as §1

[17] = test system: BT-474
Procedure: as §1

[18] = test system: Hs578T
Procedure: as §1

## CCn1c(C(=O)N(C2CC2)C2CC2)cc2c3c(ncn3C)c(Nc3cc(C)n(C)n3)nc21 (10 nM)
[1]
  normalised response: 101%
[2]
  normalised response: 95.4%
[3]
  normalised response: 120%
[4]
  normalised response: 65.7%
[5]
  normalised response: 96.8%
[6]
  normalised response: 107%
[7]
  normalised response: 116%
[8]
  normalised response: 109%
[9]
  normalised response: 105%
[10]
  normalised response: 94.1%
[11]
  normalised response: 97.6%
[12]
  normalised response: 102%
[13]
  normalised response: 106%
[14]
  normalised response: 70.5%
[15]
  normalised response: 66.8%
[16]
  normalised response: 98.8%
[17]
  normalised response: 103%
[18]
  normalised response: 122%

## CC(=O)N(O)CCCCCNC(=O)CCC(=O)N(O)CCCCCNC(=O)CCC(=O)N(O)CCCCCN [Deferoxamine] (10 nM)
[1]
  normalised response: 93.5%
[2]
  normalised response: 70.9%
[4]
  normalised response: 64.6%
[5]
  normalised response: 90.2%
[6]
  normalised response: 103%
[7]
  normalised response: 81%
[9]
  normalised response: 97.6%
[10]
  normalised response: 92.5%
[11]
  normalised response: 98.3%
[12]
  normalised response: 102%
[13]
  normalised response: 95.2%
[14]
  normalised response: 91.2%
[15]
  normalised response: 94.7%
[16]
  normalised response: 94.1%
[17]
  normalised response: 102%
[18]
  normalised response: 114%

## CC(=O)O[C@@]12CO[C@@H]1C[C@H](O)[C@@]1(C)C(=O)[C@H](O)C3=C(C)[C@@H](OC(=O)[C@H](O)[C@@H](NC(=O)OC(C)(C)C)c4ccccc4)C[C@@](O)([C@@H](OC(=O)c4ccccc4)[C@H]21)C3(C)C [Docetaxel] (1 nM)
[1]
  normalised response: 95.8%
[2]
  normalised response: 101%
[3]
  normalised response: 112%
[4]
  normalised response: 77.5%
[5]
  normalised response: 84.2%
[6]
  normalised response: 92.7%
[7]
  normalised response: 85.4%
[8]
  normalised response: 56.2%
[9]
  normalised response: 89.9%
[10]
  normalised response: 94.3%
[11]
  normalised response: 98.1%
[12]
  normalised response: 83.7%
[13]
  normalised response: 77.6%
[14]
  normalised response: 76.3%
[15]
  normalised response: 52.4%
[16]
  normalised response: 98%
[17]
  normalised response: 98.8%
[18]
  normalised response: 107%

## Nc1ccccc1NC(=O)c1ccc(CNC(=O)OCc2cccnc2)cc1 [Entinostat] (10 nM)
[1]
  normalised response: 92.3%
[2]
  normalised response: 105%
[3]
  normalised response: 105%
[4]
  normalised response: 95.6%
[5]
  normalised response: 99.8%
[6]
  normalised response: 104%
[7]
  normalised response: 112%
[8]
  normalised response: 103%
[9]
  normalised response: 103%
[10]
  normalised response: 101%
[11]
  normalised response: 100%
[12]
  normalised response: 96.5%
[13]
  normalised response: 99.1%
[14]
  normalised response: 102%
[15]
  normalised response: 99.7%
[16]
  normalised response: 106%
[17]
  normalised response: 97.6%
[18]
  normalised response: 88.8%

## Cc1c(CN2CCN(C(=O)[C@H](C)O)CC2)sc2c(N3CCOCC3)nc(-c3cnc(N)nc3)nc12 [GDC-0980] (10 nM)
[1]
  normalised response: 118%
[2]
  normalised response: 76%
[3]
  normalised response: 92.8%
[4]
  normalised response: 106%
[5]
  normalised response: 97.6%
[6]
  normalised response: 104%
[7]
  normalised response: 86.9%
[8]
  normalised response: 87.7%
[9]
  normalised response: 101%
[10]
  normalised response: 111%
[11]
  normalised response: 105%
[12]
  normalised response: 96.3%
[13]
  normalised response: 92.5%
[14]
  normalised response: 90.7%
[15]
  normalised response: 108%
[16]
  normalised response: 95.3%
[17]
  normalised response: 96.9%
[18]
  normalised response: 91.8%

## Nc1cccc2c1CN(C1CCC(=O)NC1=O)C2=O (stereo unspecified) [Lenalidomide] (10 nM)
[1]
  normalised response: 105%
[2]
  normalised response: 118%
[3]
  normalised response: 114%
[4]
  normalised response: 102%
[5]
  normalised response: 88.9%
[6]
  normalised response: 78.8%
[7]
  normalised response: 83.7%
[8]
  normalised response: 86.5%
[9]
  normalised response: 99%
[10]
  normalised response: 104%
[11]
  normalised response: 97.8%
[12]
  normalised response: 95.4%
[13]
  normalised response: 99.8%
[14]
  normalised response: 74.6%
[15]
  normalised response: 106%
[17]
  normalised response: 97.7%
[18]
  normalised response: 105%

## O=C(O)CC[C@H]1CC[C@@](c2cc(F)ccc2F)(S(=O)(=O)c2ccc(Cl)cc2)CC1 [MK-0752] (1 nM)
[1]
  normalised response: 130%
[2]
  normalised response: 105%
[3]
  normalised response: 114%
[4]
  normalised response: 118%
[5]
  normalised response: 102%
[6]
  normalised response: 111%
[7]
  normalised response: 96.3%
[8]
  normalised response: 101%
[9]
  normalised response: 98.2%
[10]
  normalised response: 118%
[11]
  normalised response: 103%
[12]
  normalised response: 102%
[13]
  normalised response: 116%
[14]
  normalised response: 95.4%
[15]
  normalised response: 110%
[16]
  normalised response: 103%
[17]
  normalised response: 103%

## S=c1[nH]cnc2nc[nH]c12 [Mercaptopurine] (10 nM)
[1]
  normalised response: 96.2%
[2]
  normalised response: 97.8%
[3]
  normalised response: 95.3%
[4]
  normalised response: 94.9%
[5]
  normalised response: 101%
[6]
  normalised response: 102%
[7]
  normalised response: 113%
[8]
  normalised response: 125%
[9]
  normalised response: 96.1%
[10]
  normalised response: 92.7%
[11]
  normalised response: 90%
[12]
  normalised response: 103%
[13]
  normalised response: 57.2%
[14]
  normalised response: 101%
[15]
  normalised response: 97.2%
[16]
  normalised response: 99.3%
[17]
  normalised response: 102%
[18]
  normalised response: 106%

## CC[C@]1(O)C[C@@H]2CN(CCc3c([nH]c4ccccc34)[C@@](C(=O)OC)(c3cc4c(cc3OC)N(C)[C@H]3[C@@](O)(C(=O)OC)[C@H](OC(C)=O)[C@]5(CC)C=CCN6CC[C@]43[C@@H]65)C2)C1 [Vinblastine] (1 nM)
[1]
  normalised response: 98.6%
[2]
  normalised response: 105%
[3]
  normalised response: 111%
[4]
  normalised response: 104%
[5]
  normalised response: 100%
[7]
  normalised response: 97%
[8]
  normalised response: 54.6%
[9]
  normalised response: 103%
[10]
  normalised response: 95.3%
[11]
  normalised response: 96.9%
[12]
  normalised response: 107%
[13]
  normalised response: 95.2%
[14]
  normalised response: 69.8%
[15]
  normalised response: 94%
[16]
  normalised response: 106%
[17]
  normalised response: 98.2%
[18]
  normalised response: 128%
